In US20250154171A1, “RAS INHIBITORS” (Revolution Medicines, Inc., priority 2023, published 2025):
Some of these results come from one statement about several compounds together.

Amino acid sequences for entries named in this document (tags omitted). A change or cut given only in a name is not applied to a line headed by its entry. Residues count along the entry.
UniProt P01116, 1-188 isoform P01116-2 G12V: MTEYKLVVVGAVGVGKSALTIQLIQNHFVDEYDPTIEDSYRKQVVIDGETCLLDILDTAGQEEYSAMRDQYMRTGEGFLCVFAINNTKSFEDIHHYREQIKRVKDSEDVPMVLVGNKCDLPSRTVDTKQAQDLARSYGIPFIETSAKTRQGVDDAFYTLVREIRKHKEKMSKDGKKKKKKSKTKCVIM
UniProt P62937, whole entry: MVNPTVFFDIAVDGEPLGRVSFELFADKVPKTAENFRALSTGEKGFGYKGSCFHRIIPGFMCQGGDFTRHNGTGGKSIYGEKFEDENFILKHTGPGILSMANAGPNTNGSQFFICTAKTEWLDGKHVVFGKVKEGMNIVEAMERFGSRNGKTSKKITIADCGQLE

Key:
K-RasG12V = K-RasG12V (Homo sapiens, UniProt P01116+P62937, G12V); assay: Disruption of BRAF RBD interaction with K-Ras (TR-FRET / MOA assay), K-RasG12V; type: biochemical; details: TR-FRET with cyclophilin A and GST-BRAF RBD, read-out: IC50 with respect to K-RasG12V (disruption of BRAF RBD interaction)
Capan-1 (K-Ras G12V) = assay: CellTiter-Glo cell viability assay, Capan-1; type: cell-based, human; details: 5-day treatment, Capan-1 versus A375

Row | Compound | IC50 (K-RasG12V) | decrease in cell viability with respect to KRAS G12V (Capan-1) versus wild-type KRAS (A375) (Capan-1 (K-Ras G12V))
1 | C[C@@H]1OCCOCCn2c(c3c4cc(ccc42)-c2csc(n2)[C@@H](N2CC4(COC4)C2)[C@H](NC(=O)C24CC(C2)[C@H](C)O4)C(=O)N2CCC[C@H](N2)C(=O)OCC(C)(C)C3)-c2cccnc21 (racemic) [Example A325] | < 1000 nM | greater decrease in cell viability
2 | CO[C@@H](C)c1ncccc1-c1c2c3cc(ccc3n1CCO[C@H]1CCOC(C)(C)C1)-c1coc(n1)C[C@H](NC(=O)[C@H]1[C@H](C)[C@@H]1C)C(=O)N1CC3CC(C3)(N1)C(=O)OCC(C)(C)C2 (racemic) [Example A326] | < 1000 nM | greater decrease in cell viability
3 | CO[C@@H](C)c1ncccc1-c1c2c3cc(ccc3n1CCO[C@H]1CCOC(C)(C)C1)-c1coc(n1)C[C@H](NC(=O)[C@H]1[C@H](C)[C@@H]1C)C(=O)N1N[C@H](C(=O)OCC(C)(C)C2)C2CC1C2 (racemic) [Example A327] | < 1000 nM | greater decrease in cell viability
4 | CO[C@@H](C)c1ncccc1-c1c2c3cc(ccc3n1CCO[C@H]1CCOC(C)(C)C1)-c1coc(n1)C[C@H](NC(=O)C13CC(C1)[C@H](C)O3)C(=O)N1CC3CC(C3)(N1)C(=O)OCC(C)(C)C2 (racemic) [Example A328] | < 1000 nM | greater decrease in cell viability
5 | CO[C@@H](C)c1ncc(N2CCN(C3CC3)CC2)cc1-c1c2c3cc(ccc3n1CCO[C@H]1CCOC(C)(C)C1)-c1csc(n1)[C@@H](N1CC3(COC3)C1)[C@H](NC(=O)[C@@H]1[C@@H](C)[C@H]1[C@H]1CCCO1)C(=O)N1CC3CC(C3)(N1)C(=O)OCC(C)(C)C2 (racemic) [Example A329] | < 1000 nM | greater decrease in cell viability
6 | C[C@@H]1[C@H](C)[C@H]1C(=O)N[C@@H]1C(=O)N2N[C@H](C(=O)OCC(C)(C)Cc3c4n(c5ccc(cc35)-c3csc(n3)[C@H]1N1CC3(COC3)C1)CCOCCO[C@@H](C)c1ncccc1-4)C1CC2C1 (racemic) [Example A330] | < 1000 nM | greater decrease in cell viability
7 | COC1CN([C@@H]2c3nc(cs3)-c3ccc4c(c3)c(c(-c3cc(N5CCN(C6CC6)CC5)cnc3[C@H](C)OC)n4CCO[C@H]3CCOC(C)(C)C3)CC(C)(C)COC(=O)C34CC(CN(N3)C(=O)[C@H]2NC(=O)[C@H]2[C@H](C)[C@@H]2C)C4)C1 (racemic) [Example A331] | < 1000 nM | greater decrease in cell viability
8 | CO[C@@H](C)c1ncc(N2CCN(C3CC3)CC2)cc1-c1c2c3cc(ccc3n1CCO[C@H]1CCOC(C)(C)C1)-c1csc(n1)[C@@H](N1CC(C)C1)[C@H](NC(=O)[C@H]1[C@H](C)[C@@H]1C)C(=O)N1CCC[C@H](N1)C(=O)OCC(C)(C)C2 (racemic) [Example A332] | < 1000 nM | greater decrease in cell viability
9 | CO[C@@H](C)c1ncc(N2CCN(C3CC3)CC2)cc1-c1c2c3cc(ccc3n1CCO[C@H]1CCOC(C)(C)C1)-c1csc(n1)[C@@H](N1CCCC1)[C@H](NC(=O)[C@@H]1[C@@H](C)[C@H]1c1cocn1)C(=O)N1CC3CC(C3)(N1)C(=O)OCC(C)(C)C2 (racemic) [Example A336] | < 1000 nM | greater decrease in cell viability
10 | CO[C@@H](C)c1ncc(N2CCN(C3CC3)CC2)cc1-c1c2c3cc(ccc3n1CCOC1CCOCC1)-c1csc(n1)[C@@H](N1CC3CC1C3)[C@H](NC(=O)C13CC(C1)[C@H](C)O3)C(=O)N1CCC[C@H](N1)C(=O)OCC(C)(C)C2 (racemic) [Example A337] | < 1000 nM | greater decrease in cell viability
11 | CO[C@@H](C)c1ncc(N2CCN(C3CC3)CC2)cc1-c1c2c3cc(ccc3n1CCO[C@H]1CCOC(C)(C)C1)-c1csc(n1)[C@@H](N1CCCC1)[C@H](NC(=O)C13CC(C1)[C@H](C)O3)C(=O)N1N[C@H](C(=O)OCC(C)(C)C2)C2CC1C2 (racemic) [Example A338] | < 1000 nM | greater decrease in cell viability
12 | CO[C@@H](C)c1ncc(N2CCN(C3CC3)CC2)cc1-c1c2c3cc(ccc3n1CCOC1CCOCC1)-c1csc(n1)[C@@H](N1CCOCC1)[C@H](NC(=O)[C@H]1C[C@H](C)O1)C(=O)N1CCC[C@H](N1)C(=O)OCC(C)(C)C2 (racemic) [Example A339] | < 1000 nM | greater decrease in cell viability
13 | CO[C@@H](C)c1ncc(N2CCN(C3CC3)CC2)cc1-c1c2c3cc(ccc3n1CCOC1CCOCC1)-c1csc(n1)[C@@H](N1CCOCC1)[C@H](NC(=O)[C@@H]1C[C@H](C)O1)C(=O)N1CCC[C@H](N1)C(=O)OCC(C)(C)C2 (racemic) [Example A340] | < 1000 nM | greater decrease in cell viability
14 | CO[C@@H](C)c1ncccc1-c1c2c3cc(ccc3n1C1COC1)-c1csc(n1)[C@@H](N1CC3(COC3)C1)[C@H](NC(=O)[C@H]1OC[C@@H]1C)C(=O)N1N[C@H](C(=O)OCC(C)(C)C2)C2CC1C2 (racemic) [Example A341] | < 1000 nM | greater decrease in cell viability
15 | CO[C@@H](C)c1ncccc1-c1c2c3cc(ccc3n1CCO[C@H]1CCOC(C)(C)C1)-c1coc(n1)C[C@H](NC(=O)C13CC(C1)[C@H](C)O3)C(=O)N1CCC[C@H](N1)C(=O)OCC(C)(C)C2 (racemic) [Example A342] | < 1000 nM | greater decrease in cell viability
16 | CCO[C@@H]1c2nc(cs2)-c2ccc3c(c2)c(c(-c2cc(N4CCN(C5CC5)CC4)cnc2[C@H](C)OC)n3CCO[C@H]2CCOC(C)(C)C2)CC(C)(C)COC(=O)C23CC(CN(N2)C(=O)[C@H]1NC(=O)C12CC(C1)[C@H](C)O2)C3 (racemic) [Example A343] | < 1000 nM | greater decrease in cell viability
17 | COC1CN([C@@H]2c3nc(cs3)-c3ccc4c(c3)c(c(-c3cc(N5CCN(C6CC6)CC5)cnc3[C@H](C)OC)n4CCOC3CCOC(C)(C)C3)CC(C)(C)COC(=O)[C@H]3NN(C(=O)[C@H]2NC(=O)N2CC[C@H]2C)C2CC3C2)C1 (mixture of isomers) [Example A344] | < 1000 nM | greater decrease in cell viability
18 | CO[C@@H](C)c1ncc(N2CCN(C3CC3)CC2)cc1-c1c2c3cc(ccc3n1CCO[C@H]1CCOC(C)(C)C1)-c1csc(n1)[C@@H](N1CC3(COC3)C1)[C@H](NC(=O)C13CC(C1)[C@H](C)O3)C(=O)N1CC3CC(C3)(N1)C(=O)OCC(C)(C)C2 (racemic) [Example A345] | < 1000 nM | greater decrease in cell viability
19 | CO[C@@H](C)c1ncc(N2CCN(C3CC3)CC2)cc1-c1c2c3cc(ccc3n1CCOC1CCOC(C)(C)C1)-c1csc(n1)[C@@H](N1CC3CC1C3)[C@H](NC(=O)[C@@H]1[C@@H](C)[C@H]1c1ccccn1)C(=O)N1CC3CC(C3)(N1)C(=O)OCC(C)(C)C2 (mixture of isomers) [Example A346] | < 1000 nM | greater decrease in cell viability
20 | CO[C@@H](C)c1ncc(N2CCN(C3CC3)CC2)cc1-c1c2c3cc(ccc3n1CCO[C@H]1CCOC(C)(C)C1)-c1csc(n1)[C@@H](N1CC3(COC3)C1)[C@H](NC(=O)[C@@H]1[C@@H](C)[C@H]1c1ccncn1)C(=O)N1CC3CC(C3)(N1)C(=O)OCC(C)(C)C2 (racemic) [Example A347] | < 1000 nM | greater decrease in cell viability
21 | COC1CN([C@@H]2c3nc(cs3)-c3ccc4c(c3)c(c(-c3cc(N5CCN(C6CC6)CC5)cnc3[C@H](C)OC)n4CCO[C@H]3CCOC(C)(C)C3)CC(C)(C)COC(=O)[C@@H]3CCCN(N3)C(=O)[C@H]2NC(=O)[C@@H]2[C@@H](C)[C@H]2c2ccccn2)C1 (racemic) [Example A348] | < 1000 nM | greater decrease in cell viability
22 | COC1CN([C@@H]2c3nc(cs3)-c3ccc4c(c3)c(c(-c3cc(N5CCN(C6CC6)CC5)cnc3[C@H](C)OC)n4CCO[C@H]3CCOC(C)(C)C3)CC(C)(C)COC(=O)[C@@H]3CCCN(N3)C(=O)[C@H]2NC(=O)C23CC(C2)[C@H](C)O3)C1 (racemic) [Example A349] | < 1000 nM | greater decrease in cell viability
23 | CO[C@@H](C)c1ncc(N2CCN(C3CC3)CC2)cc1-c1c2c3cc(ccc3n1CCO[C@H]1CCOC(C)(C)C1)-c1csc(n1)[C@@H](N1CCCC1)[C@H](NC(=O)[C@@H]1OC[C@@H]1C)C(=O)N1CCC[C@H](N1)C(=O)OCC(C)(C)C2 (racemic) [Example A350] | < 1000 nM | greater decrease in cell viability
24 | CO[C@@H](C)c1ncc(N2CCN(C3CC3)CC2)cc1-c1c2c3cc(ccc3n1CCO[C@H]1CCOC(C)(C)C1)-c1csc(n1)[C@@H](N1CCCC1)[C@H](NC(=O)[C@H]1OC[C@@H]1C)C(=O)N1CCC[C@H](N1)C(=O)OCC(C)(C)C2 (racemic) [Example A351] | < 1000 nM | greater decrease in cell viability
25 | CO[C@@H](C)c1ncc(C2CCN(C3CC3)CC2)cc1-c1c2c3cc(ccc3n1CCOC1CC1)-c1csc(n1)[C@@H](N1CC3(COC3)C1)[C@H](NC(=O)C13CC(C1)[C@H](C)O3)C(=O)N1CCC[C@H](N1)C(=O)OCC(C)(C)C2 (racemic) [Example A352] | < 1000 nM | greater decrease in cell viability
